We go through 2 sequences from patent US20140329289.

Sequences of proteins named here, by UniProt entry; tags and fusion partners are left off. Residues count along the entry.
UniProt P08603, 19-1231: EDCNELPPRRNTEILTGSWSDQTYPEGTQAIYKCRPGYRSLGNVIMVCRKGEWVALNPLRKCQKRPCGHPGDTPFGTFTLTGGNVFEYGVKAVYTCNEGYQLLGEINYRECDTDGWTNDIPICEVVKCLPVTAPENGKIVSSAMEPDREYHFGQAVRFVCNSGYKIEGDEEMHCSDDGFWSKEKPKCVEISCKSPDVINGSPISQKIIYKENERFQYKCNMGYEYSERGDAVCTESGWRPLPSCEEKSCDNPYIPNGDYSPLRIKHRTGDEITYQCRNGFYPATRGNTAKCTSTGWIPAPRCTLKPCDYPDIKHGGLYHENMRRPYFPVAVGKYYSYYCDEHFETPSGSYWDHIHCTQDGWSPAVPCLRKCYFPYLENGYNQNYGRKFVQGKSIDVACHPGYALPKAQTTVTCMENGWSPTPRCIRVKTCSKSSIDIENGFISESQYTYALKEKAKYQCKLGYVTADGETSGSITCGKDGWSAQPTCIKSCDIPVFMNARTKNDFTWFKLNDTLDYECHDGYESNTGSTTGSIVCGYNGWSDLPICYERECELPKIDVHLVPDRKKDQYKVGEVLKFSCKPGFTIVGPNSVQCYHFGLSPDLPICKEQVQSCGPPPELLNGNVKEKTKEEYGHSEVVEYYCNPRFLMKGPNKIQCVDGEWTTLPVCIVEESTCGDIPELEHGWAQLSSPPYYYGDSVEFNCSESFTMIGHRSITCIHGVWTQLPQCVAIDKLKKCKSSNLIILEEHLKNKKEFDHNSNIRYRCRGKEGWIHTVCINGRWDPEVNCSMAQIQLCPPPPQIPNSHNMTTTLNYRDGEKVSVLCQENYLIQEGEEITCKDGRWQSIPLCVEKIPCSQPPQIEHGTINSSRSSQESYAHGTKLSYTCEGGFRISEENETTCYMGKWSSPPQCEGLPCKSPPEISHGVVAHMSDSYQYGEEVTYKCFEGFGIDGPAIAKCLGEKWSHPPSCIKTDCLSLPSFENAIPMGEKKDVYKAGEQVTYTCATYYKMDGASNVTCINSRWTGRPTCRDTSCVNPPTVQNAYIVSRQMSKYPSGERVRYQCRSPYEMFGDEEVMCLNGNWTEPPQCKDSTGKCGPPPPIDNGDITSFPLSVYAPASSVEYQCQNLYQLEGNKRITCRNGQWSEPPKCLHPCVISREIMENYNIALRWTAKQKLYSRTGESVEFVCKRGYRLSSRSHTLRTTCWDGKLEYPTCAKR

Data set [1] deals with Factor H (complement factor H), plasma (Homo sapiens) (UniProt P08603). Briefly: SPR. As to conditions: lowest of 5 truncations, affinity lower than MaptH1.1 parent; 50 mM NaCl, 50 mM MgCl2, pH 7.5; purified native protein; single-stranded DNA; variant of ….
For data set [2], the target named is Factor H, recombinant (Homo sapiens) (UniProt P08603). The data set is described as follows: pull-down. The following applies: affinity chromatography from culture supernatant; single pure band eluted with EDTA (2% of A254); 10 mM MgCl2, 50 mM NaCl, pH 7.5; protein in an extract; protein details: culture supernatant of recombinant producer cells; label: biotin; single-stranded DNA.

For some assays here: A weaker result is weaker than the reference pair of the same experiment. For some assays here: For at least one entry, the source does not settle the construct or the ends of the probe. For some assays here: Results from cells or extracts need not show a direct contact.

Turning to “CACGGGTCAGGCGGTTATACGGTG [MaptH1.1 N22-45]”, in data set [1], the binding result was “binds more weakly”.

For the sequence “GGGTCAATGCCAGGTCTCGGGCACGGGTCAGGCGGTTATACGGTGCCCATTGTTCTTTATCGGCTCGCAAGCAGTC [MaptH1.1]”, in data set [2], the binding result is listed as “binds”.
